The other results are listed elsewhere or left out.
Biological target: T1, OsSMF1 (Oryza sativa, UniProt Q6ZLB0 1-436)
T1 sequence: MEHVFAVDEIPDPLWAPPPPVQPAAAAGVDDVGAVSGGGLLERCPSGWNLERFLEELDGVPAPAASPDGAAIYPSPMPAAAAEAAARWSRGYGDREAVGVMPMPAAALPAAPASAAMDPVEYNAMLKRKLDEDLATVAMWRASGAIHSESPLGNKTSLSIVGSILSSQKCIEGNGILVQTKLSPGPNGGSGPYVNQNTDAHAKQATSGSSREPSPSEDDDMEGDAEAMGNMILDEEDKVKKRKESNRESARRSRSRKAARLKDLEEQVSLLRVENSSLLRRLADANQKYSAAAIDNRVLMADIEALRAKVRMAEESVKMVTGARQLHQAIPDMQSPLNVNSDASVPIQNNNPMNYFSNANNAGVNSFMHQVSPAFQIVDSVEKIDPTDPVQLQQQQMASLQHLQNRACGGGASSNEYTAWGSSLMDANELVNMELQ
Assay: protein-binding microarray (RPBM); PBS, 2% BSA, 51.3 ng/ul salmon testes DNA, 50 uM zinc acetate, 200 nM TF, 25 C, 1 h; high values mean tight binding
Settings: protein: recombinant; tags: N-terminal polyhistidine and DsRed monomer fusion (pET32a); chain copies: 2; label: CyDye5-dUTP incorporated in the synthesized complementary strand; 3' TTTTT single-stranded linker to array surface; dsDNA, one strand shown
How it was run: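 The binding signal is fluorescence intensity per feature, in arbitrary units, read on an Axon 4000B scanner. Polyhistidine- and DsRed-tagged transcription factors (N-terminal fusions) from E. coli BL21-CodonPlus were purified on Ni–NTA and applied at 200 nM for 1 h at 25 °C to a double-stranded, BSA-blocked custom Agilent array in buffer with 50 µM zinc acetate.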

Row | Sequence | binding signal
1 | ATACAAGGAAACGTAATACCTAAGTCATGATCTGTTACATCGGAGTCACCTAGTGCAG | 3290 fluorescence intensity (a.u.)
2 | AGAACCTGAGTGGGCGGACGGCGCTGCACATGGCGGCGGCCGGAGTCACCTAGTGCAG | 3480 fluorescence intensity (a.u.)
3 | CCAGCTGCGGTACTTACATGTAGTATCATGTATGGATTAACGGAGTCACCTAGTGCAG | 30700 fluorescence intensity (a.u.)
4 | AAGTTTCTACTCATGCGTTGGCAAGAATTAGCACATTCAGCGGAGTCACCTAGTGCAG | 4210 fluorescence intensity (a.u.)
5 | GCTGCCGCCGACCAGCCCGCCTACGGCGATCGCCGGCCGTCGGAGTCACCTAGTGCAG | 3290 fluorescence intensity (a.u.)
6 | TTATTTGTGACGTACTCCATCCGTCGAATAAATATCAACACGGAGTCACCTAGTGCAG | 3720 fluorescence intensity (a.u.)
7 | CTCAACTATCTCTCGAGTATGATTCACGTCCTTCAACCACCGGAGTCACCTAGTGCAG | 4760 fluorescence intensity (a.u.)
8 | GTCATGGCGCCGGGTTTCATCTTTCAAACGGGGCATTGAACGGAGTCACCTAGTGCAG | 3200 fluorescence intensity (a.u.)
9 | ACTCATCGCCACGTTGCTAATTTAGCTGACTTTGTCAACTCGGAGTCACCTAGTGCAG | 6990 fluorescence intensity (a.u.)
10 | TAGCTCTCGCCCCGGAAGACGCCACCCAGCGATCACTTCTCGGAGTCACCTAGTGCAG | 3660 fluorescence intensity (a.u.)
11 | CCGGCAGCGAGCCATGAGTGGCGGCATGTCACGTTCCGCCCGGAGTCACCTAGTGCAG | 3420 fluorescence intensity (a.u.)
12 | ACAGACACCCCTCAAAGGACCTGACGTCCCCGTCGGTCCACGGAGTCACCTAGTGCAG | 4010 fluorescence intensity (a.u.)
13 | CTATATCCTCTGTTCGTCACTGCCTTCCTCTCCAAGTCCACGGAGTCACCTAGTGCAG | 3530 fluorescence intensity (a.u.)
14 | TGCAATTTTACTTTACCTCCGTGAGGGGCAGCACATTTTGCGGAGTCACCTAGTGCAG | 4050 fluorescence intensity (a.u.)
15 | TGTCATACATGAGGGAGAGCTCCATCTCCATCAGCGTCCACGGAGTCACCTAGTGCAG | 3330 fluorescence intensity (a.u.)
16 | TGGCAAATAGTTCCGTGATGTCAGCTTGGAAGCATCCTGCCGGAGTCACCTAGTGCAG | 6410 fluorescence intensity (a.u.)
17 | GAGCAATTAGGTGGTATAGCCAACACACGTAACTACAAGGCGGAGTCACCTAGTGCAG | 3610 fluorescence intensity (a.u.)
18 | GTGATCGCGAGCTCCGCGGTCGGACACGTCGCCGAGGTCGCGGAGTCACCTAGTGCAG | 3470 fluorescence intensity (a.u.)
19 | TCAGTTGCTGCCACCCTGCCACTGCAGAAATTACGATTCTCGGAGTCACCTAGTGCAG | 3310 fluorescence intensity (a.u.)
20 | CATTTTGGAGCTGCAGGACCGTCGTGGTGCCACGTGACCGCGGAGTCACCTAGTGCAG | 15900 fluorescence intensity (a.u.)
21 | TCGGTGCACTTGAGGTTGGCCATGACGCAACCCCTCCTCTCGGAGTCACCTAGTGCAG | 6380 fluorescence intensity (a.u.)
22 | AAGAAAATCCGTGCCAGCGCATCTATAAATGGACAAACTCCGGAGTCACCTAGTGCAG | 37100 fluorescence intensity (a.u.)
23 | TTAGTTGCAATTGGTTCTTCTTCAGAGAGGCTAATTAGTGCGGAGTCACCTAGTGCAG | 3160 fluorescence intensity (a.u.)
24 | CATGGTCCTACCTGTCATACACACATTACGTCTTGGAGTCCGGAGTCACCTAGTGCAG | 3410 fluorescence intensity (a.u.)
25 | ACATACACACACCACCACCAACATAGCTTCTTTTGTCACTCGGAGTCACCTAGTGCAG | 3160 fluorescence intensity (a.u.)
26 | ACACTGGCGCGCCCACGTGGAGCTCCGGGTCGTCGGCGTCCGGAGTCACCTAGTGCAG | 8350 fluorescence intensity (a.u.)
27 | GGGATGGCCAGATTGGAACTCAGCAGACTCGCTGATGACTCGGAGTCACCTAGTGCAG | 3800 fluorescence intensity (a.u.)

From entry 24 to 26, as listed above:
Row | Sequence | binding signal
24 | CATGGTCCTACCTGTCATACACACATTACGTCTTGGAGTCCGGAGTCACCTAGTGCAG | 3410 fluorescence intensity (a.u.)
25 | ACATACACACACCACCACCAACATAGCTTCTTTTGTCACTCGGAGTCACCTAGTGCAG | 3160 fluorescence intensity (a.u.)
26 | ACACTGGCGCGCCCACGTGGAGCTCCGGGTCGTCGGCGTCCGGAGTCACCTAGTGCAG | 8350 fluorescence intensity (a.u.)

(list continues)

Row | Sequence | binding signal
28 | CACATTGTCAGCAGCTAGGCTAGTAACAGGTCATCATGCCCGGAGTCACCTAGTGCAG | 5090 fluorescence intensity (a.u.)
29 | TTTTGGCATTTTAGACCAAAATTATTTGAAATTTCGACTGCGGAGTCACCTAGTGCAG | 26400 fluorescence intensity (a.u.)
30 | CTCGCCGTCGCTGCCTCGCTGGCGCCCATACCTGGAGCGACGGAGTCACCTAGTGCAG | 6980 fluorescence intensity (a.u.)
31 | GTTCTTGGTTAGGAATTAACATGATGTCATGGATCGAGTCCGGAGTCACCTAGTGCAG | 10800 fluorescence intensity (a.u.)
32 | ACACACCACGTAGCGTCACATCATCCTCATGTAACAGCCTCGGAGTCACCTAGTGCAG | 5090 fluorescence intensity (a.u.)
33 | AATCCTATCCTTATCTATCCACTGGACACGAAGGCAACACCGGAGTCACCTAGTGCAG | 8870 fluorescence intensity (a.u.)
34 | ATAGTCCGGAGTAAGAAGGATTACCTCGTTACGAAGTCACCGGAGTCACCTAGTGCAG | 7440 fluorescence intensity (a.u.)
35 | AGGACATGAGGGCATACACACGTTTCAAGGCCCCGTGGAACGGAGTCACCTAGTGCAG | 3170 fluorescence intensity (a.u.)
36 | AAAATTTCTATGTAATGTCTAATGCCATGTAAGTTTTGGACGGAGTCACCTAGTGCAG | 3260 fluorescence intensity (a.u.)
37 | ACGAGTCCATGACTAGCATGCGTCACTGAAACTGAAGTTGCGGAGTCACCTAGTGCAG | 4750 fluorescence intensity (a.u.)
38 | TATAGCTATGATATGCTTACTATTTCATATTGCTTTCATGCGGAGTCACCTAGTGCAG | 3140 fluorescence intensity (a.u.)
39 | GATCATACGAACCCCACCGCCACGTCTACTCCCTCGCCGCCGGAGTCACCTAGTGCAG | 9250 fluorescence intensity (a.u.)
40 | AGTATTTATCGTTTTAGTTAATTTGATGAATCTGTATATTCGGAGTCACCTAGTGCAG | 16300 fluorescence intensity (a.u.)
41 | TCTTTCATATATTATGGATTTATGGTAGTGTTCTTGCTGTCGGAGTCACCTAGTGCAG | 29500 fluorescence intensity (a.u.)
42 | GACGCGGAGAACTCGCCGGCGGGCGGCGCCGTCATCAGAACGGAGTCACCTAGTGCAG | 6720 fluorescence intensity (a.u.)
43 | TCACGGTGGTTGTGGTGGTCGGCGTCGTCCTCGCGCTCGCCGGAGTCACCTAGTGCAG | 18600 fluorescence intensity (a.u.)
44 | AATCCCAACTAAGCTCTCTCGTTCTCTCAGTCTGTCAACTCGGAGTCACCTAGTGCAG | 3710 fluorescence intensity (a.u.)
45 | ACCCTCAAATTATTTCCATAAACTCAGTTCTATCCATCACCGGAGTCACCTAGTGCAG | 16500 fluorescence intensity (a.u.)
46 | TCCAGCCCGACGAGGTGTCGGCGGCTATCGTCACCTGCGGCGGAGTCACCTAGTGCAG | 3660 fluorescence intensity (a.u.)
47 | ACCGCGCACCAACCCACCGCACGCCGCCCACCACGTGCTGCGGAGTCACCTAGTGCAG | 3320 fluorescence intensity (a.u.)
48 | ACGTGCTTCTGACTAAAAGAGAGAAATTTGTGTGCTGTTTCGGAGTCACCTAGTGCAG | 3160 fluorescence intensity (a.u.)
49 | ACTCCATTTGCTACATGCACTTGTCACGCCACTACTACTCCGGAGTCACCTAGTGCAG | 3450 fluorescence intensity (a.u.)
50 | CGTGTGCCACCCGCTTGCCCCTTCACCGCGCCACACGTACCGGAGTCACCTAGTGCAG | 4350 fluorescence intensity (a.u.)
51 | TCACTTCGAGCCATACCATTAATTTATACACGTAATCAACCGGAGTCACCTAGTGCAG | 6930 fluorescence intensity (a.u.)
52 | CTCGTGTGGTGGCCTGCGTTGATTCCCGACGTGGCGCGAGCGGAGTCACCTAGTGCAG | 22700 fluorescence intensity (a.u.)
53 | CATCAACCCCTCAACCTTGCCACGTCAGTGCCAAATCAACCGGAGTCACCTAGTGCAG | 12500 fluorescence intensity (a.u.)
54 | CTTTGGATTCTGGTTAAAGAATTCGAATGGGAACTCTTAGCGGAGTCACCTAGTGCAG | 3400 fluorescence intensity (a.u.)

— paper PMC7819943, “Rice protein-binding microarrays: a tool to detect cis-acting elements near promoter regions in rice”
